These are yes or no findings as the source states them, for the method shown. For some assays here: In cells and extracts the contact can be indirect. Some entries that bind do so weakly or less than the wild type. One block for each substance: values may come before it.
Experiments:
[1] = molecular target: Ephrin A1-Flag (human) (UniProt P20827); experiment: co-IP; NCI-N87, MKN45, AGS and MKN45-EphA2-KO cells transfected with control-Flag or Ephrin A1-Flag; anti-Flag beads; lysis buffer 20 mM Tris pH 8.0, 150 mM NaCl, 1 mM EDTA, 1 mM EGTA, 1% Triton-100; western blot
[2] = molecular target: EGFR-Myc (wild type) (human) (UniProt P00533); experiment: co-IP; MKN45 cells transfected with EGFR-Myc wild type or deletion constructs; anti-Myc beads; western blot for Ephrin A1
[3] = molecular target: N-EGFR-Fc protein (UniProt P00533); experiment: pull-down; Fc fusion protein and its partner incubated in lysis buffer overnight at 4 °C; Protein A/G magnetic beads; both orientations (N-EGFR-Fc with Ephrin A1; Ephrin A1-Fc with EGFR protein); both purified
[4] = molecular target: EGFR-Flag (UniProt P00533); experiment: co-IP; Ephrin A1-overexpressing MKN45 cells transfected with control-Flag or EGFR-Flag; immunoprecipitation by Flag; western blot

Protein sequences, listed by entry. Tags and fused reporters are not part of them. Residues count along the entry.
UniProt P29317, residues 24-976: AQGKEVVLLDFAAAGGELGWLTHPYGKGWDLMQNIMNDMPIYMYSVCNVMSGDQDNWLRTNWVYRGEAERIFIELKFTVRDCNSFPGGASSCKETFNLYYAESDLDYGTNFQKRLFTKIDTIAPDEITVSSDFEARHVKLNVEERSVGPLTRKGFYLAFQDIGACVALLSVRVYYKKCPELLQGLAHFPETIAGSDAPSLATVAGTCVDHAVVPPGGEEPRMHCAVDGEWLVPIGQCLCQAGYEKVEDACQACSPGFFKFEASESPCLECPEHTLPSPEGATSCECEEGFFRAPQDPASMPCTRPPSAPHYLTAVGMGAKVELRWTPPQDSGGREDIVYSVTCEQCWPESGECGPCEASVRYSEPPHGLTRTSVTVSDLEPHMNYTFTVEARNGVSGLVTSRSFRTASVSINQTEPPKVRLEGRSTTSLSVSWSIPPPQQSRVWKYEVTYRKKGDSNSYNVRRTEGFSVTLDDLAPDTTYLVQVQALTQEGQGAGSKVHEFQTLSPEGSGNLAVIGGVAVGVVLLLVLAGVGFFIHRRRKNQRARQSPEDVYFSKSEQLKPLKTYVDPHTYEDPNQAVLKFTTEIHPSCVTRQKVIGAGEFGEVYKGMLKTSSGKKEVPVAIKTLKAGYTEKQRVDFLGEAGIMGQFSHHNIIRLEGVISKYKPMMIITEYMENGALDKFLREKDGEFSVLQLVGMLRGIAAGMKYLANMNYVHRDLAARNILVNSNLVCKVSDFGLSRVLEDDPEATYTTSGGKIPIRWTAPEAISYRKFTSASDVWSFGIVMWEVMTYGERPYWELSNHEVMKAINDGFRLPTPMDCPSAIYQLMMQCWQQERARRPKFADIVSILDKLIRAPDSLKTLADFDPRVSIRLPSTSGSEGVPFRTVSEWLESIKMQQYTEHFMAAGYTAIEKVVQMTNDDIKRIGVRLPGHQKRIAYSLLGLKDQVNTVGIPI

- binding [1]: binds
Substance: EphA2 (from UniProt P29317 24-976) (receptor)

- binding [2]: binds
Substance: Ephrin A1 (in MKN45 cells) (from UniProt P20827 19-182) (ligand)

- binding [1]: binds
Substance: Epidermal growth factor receptor (EGFR) (from UniProt P00533 25-1210)

- binding [3]: binds
Substance: Ephrin A1 protein purified from bacteria (from UniProt P20827 19-182) (ligand)

- binding [4]: binds
Substance: Ephrin A1 (overexpressed, untagged) (from UniProt P20827 19-182) (ligand)

— paper PMC11876641, “Ephrin A1 functions as a ligand of EGFR to promote EMT and metastasis in gastric cancer” (The EMBO Journal, 2025)
